Cleaved PARP in drug-treated melanoma cells

Source: doi:10.1371/journal.pone.0140310, primary screening data, rounded.

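Human melanoma cells were exposed to two drugs together for 72 h in 1,536-well plates and read by automated microscopy after fixing and staining. Each value is the cleaved-PARP-positive fraction of nuclei relative to DMSO-treated wells, in %, so that 100 equals the control and higher values mean more apoptosis. Concentrations were fixed for each drug; these are the higher of two levels. These are primary screening values without error estimates. The marker varies much from line to line, for technical or biological reasons.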 This is part of the screen, not chosen by result. A dash means that no value is listed here.

Drugs:
ruxolitinib: N#CC[C@H](C1CCCC1)n1cc(-c2ncnc3[nH]ccc23)cn1 at 5000 nM
darinaparsin: C[As](C)SC[C@H](NC(=O)CC[C@H](N)C(=O)O)C(=O)NCC(=O)O at 2000 nM
embelin: CCCCCCCCCCCC1=C(O)C(=O)C=C(O)C1=O at 6000 nM
PF-562271: CN(c1ncccc1CNc1nc(Nc2ccc3c(c2)CC(=O)N3)ncc1C(F)(F)F)S(C)(=O)=O at 400 nM
FH535: Cc1cc([N+](=O)[O-])ccc1NS(=O)(=O)c1cc(Cl)ccc1Cl at 5000 nM
NVP-BEZ235: Cn1c(=O)n(-c2ccc(C(C)(C)C#N)cc2)c2c3cc(-c4cnc5ccccc5c4)ccc3ncc21 at 20 nM
ENMD-2076: Cc1cc(Nc2cc(N3CCN(C)CC3)nc(/C=C/c3ccccc3)n2)n[nH]1 at 200 nM
sunitinib: CCN(CC)CCNC(=O)c1c(C)[nH]c(/C=C2\C(=O)Nc3ccc(F)cc32)c1C at 2000 nM
SU6656: CN(C)S(=O)(=O)c1ccc2c(c1)/C(=C/c1cc3c([nH]1)CCCC3)C(=O)N2 at 2000 nM
CX-4945: O=C(O)c1ccc2c(c1)nc(Nc1cccc(Cl)c1)c1ccncc12 at 2000 nM
STA-4783: CN(NC(=O)CC(=O)NN(C)C(=S)c1ccccc1)C(=S)c1ccccc1 at 30 nM

Pair,A101D,SK-MEL-30,LOX IMVI,IPC-298,MEL-HO,IST-MEL1,COLO 800,WM1745,LB2518-MEL,WM3526,WM451Lu,C32
NVP-BEZ235 and PF-562271,117,62.3,160,45.1,54.9,194,120,145,89.7,205,132,417
FH535 and embelin,48.3,79.2,135,43.3,84.0,102,78.9,136,173,54.9,49.4,186
PF-562271 and sunitinib,123,124,55.8,156,72.2,127,275,348,107,151,118,137
CX-4945 and darinaparsin,108,173,292,57.1,49.5,187,146,138,296,418,378,137
SU6656 and STA-4783,296,78.5,111,190,165,124,750,1880,413,117,179,4260
NVP-BEZ235 and sunitinib,91.3,291,74.0,177,194,179,27.3,180,101,261,321,395
FH535 and darinaparsin,62.5,87.0,168,45.7,153,89.6,77.7,95.0,97.8,110,59.7,87.8
CX-4945 and STA-4783,81.0,159,299,73.6,103,373,247,197,239,129,71.9,3170
ENMD-2076 and FH535,87.4,101,117,74.9,174,377,126,-,193,189,105,87.2
darinaparsin and STA-4783,243,234,217,159,78.3,686,117,181,1450,195,191,971
NVP-BEZ235 and STA-4783,663,153,198,255,103,808,315,232,-,248,56.4,1800
FH535 and NVP-BEZ235,308,184,111,94.9,88.5,118,63.4,-,271,141,159,99.7
ENMD-2076 and STA-4783,189,127,114,182,83.4,450,493,319,-,167,47.2,2560
embelin and sunitinib,66.9,155,145,129,186,157,326,-,81.7,206,663,97.0
embelin and darinaparsin,51.5,128,64.5,118,87.9,146,61.9,97.7,120,121,46.2,87.5
ENMD-2076 and CX-4945,98.3,200,265,127,64.7,89.8,100,316,98.2,310,212,90.7
SU6656 and PF-562271,206,222,76.5,276,125,155,164,366,162,149,68.1,220
darinaparsin and sunitinib,240,480,42.5,130,157,226,291,221,134,561,83.9,164
NVP-BEZ235 and SU6656,248,29.9,107,90.0,84.3,278,62.4,91.7,59.1,122,164,38.9
darinaparsin and PF-562271,110,55.4,156,358,92.8,210,132,133,83.3,81.4,54.0,224
ruxolitinib and ENMD-2076,129,53.5,317,302,85.1,46.6,39.4,143,70.5,194,92.3,143
ruxolitinib and STA-4783,478,90.6,156,84.4,89.0,3260,171,158,569,102,119,3440
ruxolitinib and darinaparsin,69.1,90.1,234,53.4,189,140,49.9,127,188,192,130,44.8
STA-4783 and FH535,262,308,316,368,212,1330,118,405,1660,153,52.2,3660
NVP-BEZ235 and CX-4945,161,103,161,74.3,89.3,105,114,138,161,503,50.9,205
ruxolitinib and NVP-BEZ235,107,266,163,74.6,222,298,133,99.6,292,206,47.9,384
embelin and ENMD-2076,43.9,186,142,45.4,91.7,88.9,245,-,46.5,103,192,197
CX-4945 and SU6656,86.0,551,187,176,166,107,74.4,170,123,1300,98.7,63.6
FH535 and sunitinib,125,360,191,106,323,169,272,-,268,248,146,104
ENMD-2076 and PF-562271,192,84.8,176,55.2,48.1,149,188,223,75.6,134,253,416

Repeated from the top, 2 entries:

Pair,A101D,SK-MEL-30,LOX IMVI,IPC-298,MEL-HO,IST-MEL1,COLO 800,WM1745,LB2518-MEL,WM3526,WM451Lu,C32
NVP-BEZ235 and PF-562271,117,62.3,160,45.1,54.9,194,120,145,89.7,205,132,417
FH535 and embelin,48.3,79.2,135,43.3,84.0,102,78.9,136,173,54.9,49.4,186